Results taken from the supplement of paper PMC9233669.
Variants at the background level are over-represented here.

Key:
[1] = system: biotinyl-Trp-oxazolone; assay: self-aminoacylation, catalytic enhancement (BWO) (fold over background); higher = more active; k-Seq, kA / k0A0; sequences stand for … in GGGAAUGGAUCCACAUCUACGAAUUC…UUCACUGCAGACUUGACGAAGCUG
Outline: (§1)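 Working in 50 μL HEPES/NaCl/KCl/MgCl2/CaCl2 buffer with 5% acetonitrile at pH 6.9–7.0, mutagenized RNA pools (0.43 μM; 21-nt variable region) were reacted with 2–1250 μM of each biotinyl-aminoacyl-oxazolone for 90 minutes at room temperature. Streptavidin capture followed, with quantification by triplicate qPCR and Illumina sequencing. Catalytic enhancement is reported as median kA over the uncatalyzed rate, the low-activity peak of a bimodal Gaussian fit to the data.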

[2] = system: biotinyl-Leu-oxazolone; assay: self-aminoacylation, catalytic enhancement (BLO) (fold over background); higher = more active; k-Seq, kA / k0A0; sequences stand for … in GGGAAUGGAUCCACAUCUACGAAUUC…UUCACUGCAGACUUGACGAAGCUG
Outline: as §1

[3] = system: biotinyl-Val-oxazolone; assay: self-aminoacylation, catalytic enhancement (BVO) (fold over background); higher = more active; k-Seq, kA / k0A0; sequences stand for … in GGGAAUGGAUCCACAUCUACGAAUUC…UUCACUGCAGACUUGACGAAGCUG
Outline: as §1

[4] = system: biotinyl-Ile-oxazolone; assay: self-aminoacylation, catalytic enhancement (BIO) (fold over background); higher = more active; k-Seq, kA / k0A0; sequences stand for … in GGGAAUGGAUCCACAUCUACGAAUUC…UUCACUGCAGACUUGACGAAGCUG
Outline: as §1

[5] = system: biotinyl-Met-oxazolone; assay: self-aminoacylation, catalytic enhancement (BMO) (fold over background); higher = more active; k-Seq, kA / k0A0; sequences stand for … in GGGAAUGGAUCCACAUCUACGAAUUC…UUCACUGCAGACUUGACGAAGCUG
Outline: as §1

[6] = system: biotinyl-Phe-oxazolone; assay: self-aminoacylation, catalytic enhancement (BFO) (fold over background); higher = more active; k-Seq, kA / k0A0; sequences stand for … in GGGAAUGGAUCCACAUCUACGAAUUC…UUCACUGCAGACUUGACGAAGCUG
Outline: as §1

| Sequence | self-aminoacylation [1] | self-aminoacylation [2] | self-aminoacylation [3] | self-aminoacylation [4] | self-aminoacylation [5] | self-aminoacylation [6] |
| --- | --- | --- | --- | --- | --- | --- |
| AUUACCCUUGUCAUCGAGUCA [Fam2.1 aminoacylation ribozyme variant] | 0.591 | 0.708 | 0.841 | 0.895 | 0.756 | 0.6 |
| AUUACCCUUGUCAUCGAGUGG [Fam2.1 aminoacylation ribozyme variant] | 1 | 1.85 | 1.54 | 1.25 | 2.03 | 1.98 |
| AUUACCCUUGUCAUCGAUUGA [Fam2.1 aminoacylation ribozyme variant] | 0.838 | 0.778 | 0.907 | 0.766 | 0.796 | 0.757 |
| AUUACCGUAGUCAUCGAGUGA [Fam2.1 aminoacylation ribozyme variant] | 7.23 | 5.83 | 3.22 | 2.94 | 4.79 | 26 |
| AUUACCGUGAUCAUCGAGUGA [Fam2.1 aminoacylation ribozyme variant] | 10.5 | 8.78 | 4.34 | 4.18 | 9.07 | 44.9 |
| AUUACCGUGGUAAUCGAGUGA [Fam2.1 aminoacylation ribozyme variant] | 9.95 | 9.2 | 4.18 | 3.63 | 8.54 | 43.2 |
| AUUACCGUGGUCAUCGAGUCA [Fam2.1 aminoacylation ribozyme variant] | 0.457 | 0.745 | 0.855 | 0.869 | 0.771 | 0.628 |
| AUUACCUUGGUCAUCGACUGA [Fam2.1 aminoacylation ribozyme variant] | 0.355 | 0.747 | 0.787 | 0.836 | 0.684 | 0.841 |
| AUUACUCUGGUCAUCGACUGA [Fam2.1 aminoacylation ribozyme variant] | 1.31 | 0.75 | 0.798 | 1.04 | 0.886 | 0.898 |
| AUUACUCUGGUCAUCGAGCGA [Fam2.1 aminoacylation ribozyme variant] | 1.09 | 1.71 | 1.34 | 1.52 | 1.63 | 0.95 |
| AUUAGCCCGGUCAUCGAGUGA [Fam2.1 aminoacylation ribozyme variant] | 7.74 | 6.64 | 3.57 | 3.45 | 6.23 | 55.9 |
| AUUAGCCUGGUCAUCGAUUGA [Fam2.1 aminoacylation ribozyme variant] | 0.955 | 1.48 | 1.26 | 1.14 | 1.58 | 1.2 |
| AUUAUCCUGGUCAUCGAGUCA [Fam2.1 aminoacylation ribozyme variant] | 0.379 | 0.699 | 0.747 | 0.777 | 0.719 | 0.544 |
| AUUAUCCUGGUGAUCGAGUGA [Fam2.1 aminoacylation ribozyme variant] | 9.06 | 7.98 | 3.46 | 3.55 | 7.34 | 45.5 |
| AUUCAACUAGGUCGUCGGGUG [Fam2.2 aminoacylation ribozyme variant] | 1.38 | 1.8 | 1.65 | 1.59 | 1.35 | 6.9 |
| AUUCACAUAGGUCUUCGGGUG [Fam2.2 aminoacylation ribozyme variant] | 5.51 | 5.35 | 4.59 | 4.26 | 4.21 | 39.4 |
| AUUCACCAAGGUCAUCGGGCG [Fam2.2 aminoacylation ribozyme variant] | 3.82 | 4.59 | 3.64 | 3.24 | 4.07 | 16 |
| AUUCACCACGGUCAUCGGGUG [Fam2.2 aminoacylation ribozyme variant] | 10 | 12.3 | 6.13 | 5.71 | 9.37 | 68.7 |
| AUUCACCCAGGUCAACGGGUG [Fam2.2 aminoacylation ribozyme variant] | 3.81 | 4.29 | 2.53 | 1.96 | 3.24 | 19.7 |
| AUUCACCGAGGUUAUCGGGUG [Fam2.2 aminoacylation ribozyme variant] | 7.66 | 10 | 5.85 | 4.28 | 7.16 | 87.3 |
| AUUCACCUAAGUCAUAGGGUG [Fam2.2 aminoacylation ribozyme variant] | 1.3 | 1.92 | 1.21 | 1.32 | 1.87 | 5.88 |
